In assay [1] the target is Integrin β2-YFP S745E/S756E (human) (UniProt P05107). Put plainly: FRET or BRET; YFP-photobleach FRET in K562 cells transfected with integrin αL, β2-YFP (WT or mutant) and Dok1-CFP; also stable Dok1-CFP K562 line transfected with αL, β2-YFP and CCR5, untreated. A general note: In BRET a luciferase serves as donor, and the signal depends on an acceptor being close.
In assay [2] the target is Integrin β2-YFP wild-type (YFP fused to the C-terminal of the β2 cytoplasmic tail) (human) (UniProt P05107). Described as above.

Amino acid sequences for entries named in this document (tags omitted). A change or cut given only in a name is not applied to a line headed by its entry. Chains listed by the source or under a name are the forms on record and can include a tag or linker. Residues count along the entry.
Integrin β2-YFP wild-type (YFP fused to the C-terminal of the β2 cytoplasmic tail) (P05107, residues 23-769): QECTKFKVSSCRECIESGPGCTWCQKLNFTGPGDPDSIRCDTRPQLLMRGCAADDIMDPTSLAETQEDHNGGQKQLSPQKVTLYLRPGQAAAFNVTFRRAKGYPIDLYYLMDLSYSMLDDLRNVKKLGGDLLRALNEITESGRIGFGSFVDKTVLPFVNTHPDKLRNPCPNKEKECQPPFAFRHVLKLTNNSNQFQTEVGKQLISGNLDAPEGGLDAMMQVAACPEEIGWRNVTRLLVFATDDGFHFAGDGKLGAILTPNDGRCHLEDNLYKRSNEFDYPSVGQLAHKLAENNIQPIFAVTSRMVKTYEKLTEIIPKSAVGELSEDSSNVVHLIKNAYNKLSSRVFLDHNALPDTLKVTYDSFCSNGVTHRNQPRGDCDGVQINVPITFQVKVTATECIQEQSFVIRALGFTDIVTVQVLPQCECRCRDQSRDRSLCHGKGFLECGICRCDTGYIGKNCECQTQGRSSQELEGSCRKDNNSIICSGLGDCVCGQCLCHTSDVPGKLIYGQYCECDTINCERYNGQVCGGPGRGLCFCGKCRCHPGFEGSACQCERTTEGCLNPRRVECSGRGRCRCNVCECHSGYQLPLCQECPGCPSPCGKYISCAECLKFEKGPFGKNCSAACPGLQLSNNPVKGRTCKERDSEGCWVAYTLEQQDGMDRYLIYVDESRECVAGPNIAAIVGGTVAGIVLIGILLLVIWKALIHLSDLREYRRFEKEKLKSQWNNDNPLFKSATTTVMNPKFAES
Integrin β2-YFP S745E/S756E (P05107, form named): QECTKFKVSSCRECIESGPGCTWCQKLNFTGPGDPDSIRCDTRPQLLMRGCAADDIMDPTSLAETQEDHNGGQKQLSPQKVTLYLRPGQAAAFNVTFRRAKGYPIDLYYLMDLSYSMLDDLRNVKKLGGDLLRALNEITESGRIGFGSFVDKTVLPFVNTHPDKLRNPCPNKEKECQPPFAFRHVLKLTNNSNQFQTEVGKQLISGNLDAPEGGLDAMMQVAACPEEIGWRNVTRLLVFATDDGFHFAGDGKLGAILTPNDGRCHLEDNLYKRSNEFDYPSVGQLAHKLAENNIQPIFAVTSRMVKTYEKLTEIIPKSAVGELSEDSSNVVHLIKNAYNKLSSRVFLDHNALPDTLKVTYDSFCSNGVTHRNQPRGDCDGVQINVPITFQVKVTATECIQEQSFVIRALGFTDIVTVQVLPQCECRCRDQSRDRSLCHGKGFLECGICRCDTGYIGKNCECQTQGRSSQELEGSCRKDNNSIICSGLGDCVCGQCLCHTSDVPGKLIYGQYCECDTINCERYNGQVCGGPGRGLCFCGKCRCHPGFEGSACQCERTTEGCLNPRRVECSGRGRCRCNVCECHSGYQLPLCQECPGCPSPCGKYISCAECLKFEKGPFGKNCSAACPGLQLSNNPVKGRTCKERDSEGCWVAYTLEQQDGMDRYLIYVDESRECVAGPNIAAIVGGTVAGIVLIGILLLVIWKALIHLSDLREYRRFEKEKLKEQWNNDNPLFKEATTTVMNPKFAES

Results are given in words; binding and its absence hold for the method and conditions named. Binding seen in cells or lysates may run through a third protein. Some results given as binding are weak or reduced against the parent protein; the word gives no strength. Sequences can lack the tags named with a protein.

B1: Dok1-CFP (CFP fused to the C-terminus of Dok1) (protein, UniProt Q99704 1-481)
chain: MDGAVMEGPLFLQSQRFGTKRWRKTWAVLYPASPHGVARLEFFDHKGSSSGGGRGSSRRLDCKVIRLAECVSVAPVTVETPPEPGATAFRLDTAQRSHLLAADAPSSAAWVQTLCRNAFPKGSWTLAPTDNPPKLSALEMLENSLYSPTWEGSQFWVTVQRTEAAERCGLHGSYVLRVEAERLTLLTVGAQSQILEPLLSWPYTLLRRYGRDKVMFSFEAGRRCPSGPGTFTFQTAQGNDIFQAVETAIHRQKAQGKAGQGHDVLRADSHEGEVAEGKLPSPPGPQELLDSPPALYAEPLDSLRIAPCPSQDSLYSDPLDSTSAQAGEGVQRKKPLYWDLYEHAQQQLLKAKLTDPKEDPIYDEPEGLAPVPPQGLYDLPREPKDAWWCQARVKEEGYELPYNPATDDYAVPPPRSTKPLLAPKPQGPAFPEPGTATGSGIKSHNSALYSQVQKSGASGSWDCGLSRVGTDKTGVKSEGST
In the case of B1, the binding entry in assay [1] is recorded as “binds weakly”; in assay [2], “binds”.

Source of the values: publication PMC4479986, “An Alternative Phosphorylation Switch in Integrin β2 (CD18) Tail for Dok1 Binding” (Scientific Reports, 2015).
